{"source": "PubChem BioAssay AID504774 – Drosophila RNAi Screening Center | 2011", "purpose": "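Knock-downs that shift viability of MMS-exposed cells relative to untreated ones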 (primary screen)", "cell system": "Drosophila Kc167 cells", "knock-down reagent": "long dsRNA against Drosophila genes, about 0.25 µg dsRNA per well", "duration": "about 6 days: 3 days knock-down, then 3 days with or without MMS", "treatment": "methyl methanesulphonate 0.004% (w/v) for 3 days after knock-down", "read-out": "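Viability in wells given MMS, read as ATP luminescence, normalised by quantiles plate by plate and averaged across replicates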", "scale": "mean viability with MMS and viability with MMS: higher = more surviving cells after MMS", "note": "The deposit covers about 23,000 reagents; this is an unselected part of those with a known target gene and a result. 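Values are quantile-normalised luminescence on an arbitrary scale; higher means more cells surviving MMS.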 The numbers tell different reagents against one gene apart. Further read-outs or replicates are left out here. No sequences are given here."}
{"Target gene": "CG5180", "reagent no.": 1, "mean viability with MMS": 3.60e6, "viability with MMS, replicate 1": 4.07e6}
{"Target gene": "sws (swiss cheese)", "reagent no.": 1, "mean viability with MMS": 3.28e6, "viability with MMS, replicate 1": 3.71e6}
{"Target gene": "CG30203", "reagent no.": 1, "mean viability with MMS": 3.50e6, "viability with MMS, replicate 1": 4.10e6}
{"Target gene": "mei-P22 (meiotic P22)", "reagent no.": 1, "mean viability with MMS": 3.70e6, "viability with MMS, replicate 1": 4.14e6}
{"Target gene": "CG13252", "reagent no.": 1, "mean viability with MMS": 3.51e6, "viability with MMS, replicate 1": 4.03e6}
{"Target gene": "Pi4KIIalpha (Phosphatidylinositol 4-kinase II alpha)", "reagent no.": 1, "mean viability with MMS": 3.74e6, "viability with MMS, replicate 1": 4.29e6}
{"Target gene": "Pi4KIIalpha (Phosphatidylinositol 4-kinase II alpha)", "reagent no.": 2, "mean viability with MMS": 3.62e6, "viability with MMS, replicate 1": 4.10e6}
{"Target gene": "snk (snake)", "reagent no.": 1, "mean viability with MMS": 3.53e6, "viability with MMS, replicate 1": 4.16e6}
{"Target gene": "rut (rutabaga)", "reagent no.": 1, "mean viability with MMS": 2.70e6, "viability with MMS, replicate 1": 3.41e6}
{"Target gene": "rut (rutabaga)", "reagent no.": 2, "mean viability with MMS": 2.43e6, "viability with MMS, replicate 1": 2.84e6}
{"Target gene": "Vajk3", "reagent no.": 1, "mean viability with MMS": 3.75e6, "viability with MMS, replicate 1": 4.09e6}
{"Target gene": "CG13862", "reagent no.": 1, "mean viability with MMS": 3.53e6, "viability with MMS, replicate 1": 4.14e6}

No new results follow: 2 of the entries above.
{"Target gene": "rut (rutabaga)", "reagent no.": 2, "mean viability with MMS": 2.43e6, "viability with MMS, replicate 1": 2.84e6}
{"Target gene": "Vajk3", "reagent no.": 1, "mean viability with MMS": 3.75e6, "viability with MMS, replicate 1": 4.09e6}

Additional results:
{"Target gene": "pyd (polychaetoid)", "reagent no.": 1, "mean viability with MMS": 3.57e6, "viability with MMS, replicate 1": 4.09e6}
{"Target gene": "pyd (polychaetoid)", "reagent no.": 2, "mean viability with MMS": 3.85e6, "viability with MMS, replicate 1": 4.28e6}
{"Target gene": "pyd (polychaetoid)", "reagent no.": 3, "mean viability with MMS": 3.52e6, "viability with MMS, replicate 1": 4.07e6}
{"Target gene": "pyd (polychaetoid)", "reagent no.": 4, "mean viability with MMS": 3.67e6, "viability with MMS, replicate 1": 4.17e6}
{"Target gene": "pyd (polychaetoid)", "reagent no.": 5, "mean viability with MMS": 3.84e6, "viability with MMS, replicate 1": 4.36e6}
{"Target gene": "pyd (polychaetoid)", "reagent no.": 6, "mean viability with MMS": 3.42e6, "viability with MMS, replicate 1": 3.81e6}
{"Target gene": "pyd (polychaetoid)", "reagent no.": 7, "mean viability with MMS": 3.62e6, "viability with MMS, replicate 1": 3.98e6}
{"Target gene": "pyd (polychaetoid)", "reagent no.": 8, "mean viability with MMS": 3.46e6, "viability with MMS, replicate 1": 4.00e6}
{"Target gene": "pyd (polychaetoid)", "reagent no.": 9, "mean viability with MMS": 3.50e6, "viability with MMS, replicate 1": 4.01e6}
